Assay results from paper PMC8537625.
These are yes or no findings as the source states them, for the method shown. Binding seen in cells or lysates may run through a third protein. Some results given as binding are weak or reduced against the parent protein; the word gives no strength.

Protein sequences, listed by entry. Tags and fused reporters are not part of them.
UniProt Q7Z434: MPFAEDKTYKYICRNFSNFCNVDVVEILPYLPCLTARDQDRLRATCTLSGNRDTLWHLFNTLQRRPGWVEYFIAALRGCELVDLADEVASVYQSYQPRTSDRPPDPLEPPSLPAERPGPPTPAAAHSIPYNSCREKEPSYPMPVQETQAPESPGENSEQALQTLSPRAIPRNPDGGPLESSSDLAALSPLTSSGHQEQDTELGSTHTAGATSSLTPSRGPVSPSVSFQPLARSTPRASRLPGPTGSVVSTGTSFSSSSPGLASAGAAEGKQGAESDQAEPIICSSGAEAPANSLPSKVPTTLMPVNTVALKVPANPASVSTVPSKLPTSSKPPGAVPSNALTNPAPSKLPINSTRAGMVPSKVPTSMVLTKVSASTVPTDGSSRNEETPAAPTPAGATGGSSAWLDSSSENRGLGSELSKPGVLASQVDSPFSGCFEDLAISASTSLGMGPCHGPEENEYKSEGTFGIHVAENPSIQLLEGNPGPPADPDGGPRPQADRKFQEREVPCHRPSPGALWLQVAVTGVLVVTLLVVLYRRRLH
UniProt P03496: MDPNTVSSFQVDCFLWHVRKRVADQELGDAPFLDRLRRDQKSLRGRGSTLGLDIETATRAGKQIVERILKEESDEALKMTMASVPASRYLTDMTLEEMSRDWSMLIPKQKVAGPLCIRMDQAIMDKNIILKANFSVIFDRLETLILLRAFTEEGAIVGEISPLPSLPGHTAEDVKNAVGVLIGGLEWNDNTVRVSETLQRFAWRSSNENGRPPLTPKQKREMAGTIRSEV

Target: HA-tagged wild-type MAVS (human) (UniProt Q7Z434)
Experiment: co-IP

Q: Which binding does the source give for “wild-type NS1 (pCAGGS-NS1) (from UniProt P03496 1-230)” here?
A: binds
